No constants are given. Whether binding was seen depends on the method and setting.

Amino acid sequences for entries named in this document (tags omitted). A change or cut given only in a name is not applied to a line headed by its entry. Chains listed by the source or under a name are the forms on record and can include a tag or linker. Residues count along the entry.
UniProt O94817: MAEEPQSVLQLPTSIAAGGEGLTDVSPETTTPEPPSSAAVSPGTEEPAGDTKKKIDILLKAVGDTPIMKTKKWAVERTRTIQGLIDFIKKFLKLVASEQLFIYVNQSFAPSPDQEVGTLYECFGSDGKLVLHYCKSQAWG
UniProt Q9H1Y0: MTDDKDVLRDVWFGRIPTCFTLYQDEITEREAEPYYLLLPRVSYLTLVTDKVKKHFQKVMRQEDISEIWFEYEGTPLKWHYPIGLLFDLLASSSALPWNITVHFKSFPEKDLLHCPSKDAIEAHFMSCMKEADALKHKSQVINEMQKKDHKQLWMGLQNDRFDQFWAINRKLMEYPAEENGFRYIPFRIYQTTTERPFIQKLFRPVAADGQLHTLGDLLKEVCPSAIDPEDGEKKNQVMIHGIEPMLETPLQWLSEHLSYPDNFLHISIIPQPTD
SUMO-tagged WIPI3^Δ (human WIPI3 residues 8–344 without residues 264–281) (Q5MNZ6, form named): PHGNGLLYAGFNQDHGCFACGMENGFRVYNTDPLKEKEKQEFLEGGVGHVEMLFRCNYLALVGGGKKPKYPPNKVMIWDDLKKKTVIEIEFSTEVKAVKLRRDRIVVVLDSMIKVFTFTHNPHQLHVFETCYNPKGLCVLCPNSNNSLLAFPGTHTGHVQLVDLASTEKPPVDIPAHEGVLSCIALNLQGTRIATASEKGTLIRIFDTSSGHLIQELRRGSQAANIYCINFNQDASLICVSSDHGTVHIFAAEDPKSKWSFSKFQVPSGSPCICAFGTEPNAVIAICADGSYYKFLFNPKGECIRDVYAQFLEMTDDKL

Test [1] addresses full-length human ATG12 (human) (UniProt O94817). Briefly: SEC; purified proteins alone and mixed, Superdex 200 Increase 10/300 GL or Superdex 75 10/300 GL on an AKTA FPLC; mixture profile compared with the theoretical sum; fractions checked by SDS-PAGE; both purified. On the technique in general: Size exclusion chromatography separates by hydrodynamic size, large species first.
For test [2], the target named is full-length human ATG5 (human) (UniProt Q9H1Y0). The test is described as above.

As for “SUMO-tagged WIPI3^Δ (human WIPI3 residues 8–344 without residues 264–281) (from UniProt Q5MNZ6 8-344) (domain or fragment)”, the binding result in test [1] and in test [2] was “no binding” in each case.

The values are drawn from article PMC11727070.
